Data taken from US20080220140A1, “USE OF PROPENYLPHENYL GLYCOSIDES FOR ENHANCING SWEET SENSORY IMPRESSIONS” (SYMRISE GmbH & Co. KG, priority 2007, published 2008).

What was measured:
[1] = Sensory profile (taste description) of the substance in water or sucrose solution; format: in vivo
From the text: Tasting of an equivalent amount of glucose (200 ppm, corresponding to 0.02 wt. %) was not carried out, because corresponding absolute amounts or amounts added to the sucrose already present have no sensory relevance.

[2] = Current Biology 2005, 15, 1256-1265 and own sensory test; cited from earlier work

Q: For `C=CCc1ccc(O)cc1` [chavicol, 4-Allylphenol], which Sensory profile ([1]; 2 ppm in 5 wt. % aqueous sugar solution (sucrose)) is on record?
A: cresol note, rubber, unpleasant

Q: What about the Intrinsic flavour impression ([1]; even at 2 ppm) of the same compound?
A: very strong and disruptive

Q: For `C=CCc1ccccc1O[C@@H]1O[C@H](CO)[C@@H](O)[C@H](O)[C@H]1O` [2-allylphenyl-β-D-glucopyranoside], which Taste [2] is on record?
A: very bitter

Q: Which Taste [2] does the source give for `OCc1ccccc1O[C@@H]1O[C@H](CO)[C@@H](O)[C@H](O)[C@H]1O` [salicin, 2-(hydroxymethyl)phenyl-β-D-glucopyranoside] here?
A: very bitter

Q: Which Taste [2] does the source give for `CCc1ccc(O[C@@H]2O[C@H](CO)[C@@H](O)[C@H](O)[C@H]2O)cc1` [4-ethylphenyl-β-D-gluco-pyranoside] here?
A: very bitter

Q: Which Taste [2] does the source give for `O=Cc1ccc(O[C@@H]2O[C@H](CO)[C@@H](O)[C@H](O)[C@H]2O)cc1` [4-carbonylphenyl-β-D-glucopyranoside] here?
A: very bitter

Q: For `Cc1ccc(O[C@@H]2O[C@H](CO)[C@@H](O)[C@H](O)[C@H]2O)cc1` [4-methylphenyl-β-D-glucopyranoside], which Taste [2] is on record?
A: very bitter

Q: With `C=CCc1ccc(O[C@@H]2O[C@H](CO)[C@@H](O)[C@H](O)[C@H]2O)cc1` [compound 1, 1-O-[4-(propen-2-enyl)phenyl]-D-glucopyranoside] as the compound, how does the Sensory profile ([1]; 100 ppm in 5 wt. % aqueous sugar solution (sucrose)) read?
A: slightly dusty-dry, otherwise neutral

Q: What about the Sensory profile ([1]; 100 ppm in aqueous solution) of the same compound?
A: virtually neutral, slightly dusty-dry
